According to the supplement of paper PMC3334620:
In all, about 33,000 sequences were measured (“E-score (-0.5 to 0.5)”: median about -0.0014, highest 2% from about 0.25 on). Some of the results follow.

Target: T1, Cad1 (UniProt P24813)
T1 sequence: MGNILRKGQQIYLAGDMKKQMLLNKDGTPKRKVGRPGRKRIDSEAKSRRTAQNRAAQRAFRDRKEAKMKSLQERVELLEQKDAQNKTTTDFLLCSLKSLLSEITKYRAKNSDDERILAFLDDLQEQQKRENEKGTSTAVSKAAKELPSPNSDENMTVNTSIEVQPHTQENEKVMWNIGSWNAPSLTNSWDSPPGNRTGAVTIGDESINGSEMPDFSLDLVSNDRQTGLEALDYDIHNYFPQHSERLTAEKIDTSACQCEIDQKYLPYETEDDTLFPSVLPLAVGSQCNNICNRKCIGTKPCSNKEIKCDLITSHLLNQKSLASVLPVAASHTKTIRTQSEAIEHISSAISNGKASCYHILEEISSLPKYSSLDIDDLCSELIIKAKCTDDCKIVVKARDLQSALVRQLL
Assay: PBM E-score (8-mer binding enrichment) (E-score (-0.5 to 0.5)); higher = stronger / more preferred TF binding
Details: protein concentration: 100 nM; construct: GST-full length
Procedure: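 Universal 'all 10-mer' protein binding microarrays (Agilent AMADID 015681) probed with GST-tagged S. cerevisiae TFs (full-length or DBD) made by in vitro transcription/translation (PURExpress), about 100-200 nM. Bound TF was detected with fluorescent anti-GST. Each ungapped 8-mer (which stands for itself and its reverse complement) is scored by the PBM enrichment score (E-score), a modified Wilcoxon-Mann-Whitney statistic from -0.5 to +0.5, computed with the Universal PBM Analysis Suite. Scale: above 0.35 generally sequence-specific binding.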

| Sequence | PBM E-score |
| --- | --- |
| CCTATTGC | 0.0226 |
| CGACCTGA | 0.0131 |
| GATCCCAA | -0.137 |
| AAATTCTC | -0.0714 |
| GCATGGGA | -0.212 |
| ACACTGGA | 0.182 |
| GCTGTATA | 0.0801 |
| AATCAGCG | 0.211 |
| AACGCCGT | 0.0733 |
| CGCTAGAA | -0.0833 |
| ATGGCGGG | 0.143 |
| GCGTCTAA | -0.0676 |
| AAATACTC | 0.0948 |
| CGAGAGGC | -0.243 |
| ACCTACCA | -0.17 |
| AGGTCGCG | 0.117 |
| TCGTGGCA | 0.102 |
| CGACTTCC | -0.0468 |
| GCGCTTAA | 0.106 |
| CGGCAGCA | -0.0735 |
| AGACAAGG | -0.0828 |
| GTCCGCAA | 0.141 |

Another view of part of the listing above:
GATCCCAA
  PBM E-score: -0.137
CGAGAGGC
  PBM E-score: -0.243

Given as labelled records: entries from further up.
AGGTCGCG
  PBM E-score: 0.117
TCGTGGCA
  PBM E-score: 0.102

The results go on:

| Sequence | PBM E-score |
| --- | --- |
| ATGGCAGG | 0.0752 |
| GCCTTTCA | -0.131 |
| GGAGTCAC | -0.265 |
| CGCAGCTC | -0.0491 |
| ATGGGCGA | -0.274 |
| ACTATGAA | 0.0148 |
| ATTTCACG | 0.189 |
| AGACTAAG | -0.13 |
| ATTGAATC | -0.0423 |
| AGAGAAGG | -0.176 |
| CGGAACCC | 0.0865 |
| GAGCTTGA | 0.0153 |
| ACCTGCTA | 0.027 |
| GCCTGGAC | -0.0433 |
| AAGGTTTC | 0.0554 |
| ACTTATCC | 0.0942 |
| AGTTGAGG | -0.125 |
| GTGGCACA | -0.208 |
| AGGTTGGC | -0.143 |
| CAGGAGCC | -0.21 |
| AGTGCGCA | 0.17 |
| ACTACGAT | 0.0898 |

| Sequence | PBM E-score |
| --- | --- |
| ATGCGCCG | 0.0273 |
| CCGATGAA | 0.137 |
| TAGCCCGA | -0.0105 |
| CTGGTTCC | -0.00859 |
| GCCGGCGC | 0.212 |
| CTTTTTTC | -0.13 |
| AGTGTACC | -0.115 |
| CCCGAAGC | -0.0644 |
| TACTGCCA | -0.103 |
| CACTTATG | 0.175 |
| GACCCAGA | -0.0356 |
| AGAGTCCT | -0.251 |
| GATCCTGC | 0.0302 |
| ACCAGAGT | -0.182 |
| ATTAAAAC | 0.108 |
| GCGCCAAC | 0.145 |
| CGCGGGAG | -0.0438 |
| TCTTCTCA | -0.0244 |
| AACAGACA | 0.187 |
| AGATGCAA | -0.0727 |
| AACAGCAG | 0.0283 |
| GACAGACC | -0.0425 |

2 entries from above in a different format.
Sequence | PBM E-score
CTTTTTTC | -0.13
AGTGTACC | -0.115

Later entries

| Sequence | PBM E-score |
| --- | --- |
| CAATTCCG | 0.192 |
| ATCACGAC | 0.132 |
| CGTATCAA | 0.0137 |
| GCACTTGA | 0.0277 |
| AACAATAG | -0.183 |
| CTGATCAG | 0.153 |
| AGATTCTC | -0.145 |
| ACATAAGA | 0.165 |
| ATTGTCGA | -0.00986 |
| AATGCAGG | -0.0263 |
| CACATGTC | 0.0392 |
| ACACCTTA | 0.112 |
| ATGCGCTC | -0.0149 |
| TGATTCCA | -0.114 |
| AAGTTTAG | -0.00022 |
| CACCGCGC | 0.0105 |
| AGGGTTTG | -0.123 |
| CGGTTTGA | 0.0875 |
| ATTCTGAA | 0.152 |
| ATCACACG | 0.0774 |
| CATCGTCC | 0.0486 |
| GCGGCCGA | 0.0504 |

| Sequence | PBM E-score |
| --- | --- |
| CAGGAGCA | -0.0281 |
| TAAATAGA | -0.152 |
| AGCGACTG | -0.0466 |
| ACACAGCA | 0.076 |
| AAGACTGC | -0.182 |
| AGGCGATC | -0.198 |
| AAGATCCC | -0.00524 |
| ACCGCGAT | 0.174 |
| GAGTTCAA | -0.0322 |
| CCACATGC | 0.111 |
| ATTACACA | 0.284 |
| CGTGGTGC | -0.202 |
| ATTGGTGA | -0.125 |
| GGATGAGA | 0.188 |
| CTGAATCC | -0.023 |
| GGGCGGCA | -0.224 |
| ACTTAGGG | -0.0989 |
| AAAGATTG | -0.04 |
| CGGTTTGC | -0.021 |
| GTCATTTA | 0.00473 |
| CATGGTGC | -0.0572 |
